Measured values: article PMC5996148
Values joined by “and” are separate entries in the source; they are usually repeats but may differ in a detail not shown here. Equal entries are not always repeated. Some of the results follow. For some assays here: Construct or isoform of the protein are uncertain.

Chains of the proteins cited; added tags and fusions are not shown. Lines headed by an entry give the natural chain unless they say otherwise; changes in a name come on top.
UniProt Q8IYD8: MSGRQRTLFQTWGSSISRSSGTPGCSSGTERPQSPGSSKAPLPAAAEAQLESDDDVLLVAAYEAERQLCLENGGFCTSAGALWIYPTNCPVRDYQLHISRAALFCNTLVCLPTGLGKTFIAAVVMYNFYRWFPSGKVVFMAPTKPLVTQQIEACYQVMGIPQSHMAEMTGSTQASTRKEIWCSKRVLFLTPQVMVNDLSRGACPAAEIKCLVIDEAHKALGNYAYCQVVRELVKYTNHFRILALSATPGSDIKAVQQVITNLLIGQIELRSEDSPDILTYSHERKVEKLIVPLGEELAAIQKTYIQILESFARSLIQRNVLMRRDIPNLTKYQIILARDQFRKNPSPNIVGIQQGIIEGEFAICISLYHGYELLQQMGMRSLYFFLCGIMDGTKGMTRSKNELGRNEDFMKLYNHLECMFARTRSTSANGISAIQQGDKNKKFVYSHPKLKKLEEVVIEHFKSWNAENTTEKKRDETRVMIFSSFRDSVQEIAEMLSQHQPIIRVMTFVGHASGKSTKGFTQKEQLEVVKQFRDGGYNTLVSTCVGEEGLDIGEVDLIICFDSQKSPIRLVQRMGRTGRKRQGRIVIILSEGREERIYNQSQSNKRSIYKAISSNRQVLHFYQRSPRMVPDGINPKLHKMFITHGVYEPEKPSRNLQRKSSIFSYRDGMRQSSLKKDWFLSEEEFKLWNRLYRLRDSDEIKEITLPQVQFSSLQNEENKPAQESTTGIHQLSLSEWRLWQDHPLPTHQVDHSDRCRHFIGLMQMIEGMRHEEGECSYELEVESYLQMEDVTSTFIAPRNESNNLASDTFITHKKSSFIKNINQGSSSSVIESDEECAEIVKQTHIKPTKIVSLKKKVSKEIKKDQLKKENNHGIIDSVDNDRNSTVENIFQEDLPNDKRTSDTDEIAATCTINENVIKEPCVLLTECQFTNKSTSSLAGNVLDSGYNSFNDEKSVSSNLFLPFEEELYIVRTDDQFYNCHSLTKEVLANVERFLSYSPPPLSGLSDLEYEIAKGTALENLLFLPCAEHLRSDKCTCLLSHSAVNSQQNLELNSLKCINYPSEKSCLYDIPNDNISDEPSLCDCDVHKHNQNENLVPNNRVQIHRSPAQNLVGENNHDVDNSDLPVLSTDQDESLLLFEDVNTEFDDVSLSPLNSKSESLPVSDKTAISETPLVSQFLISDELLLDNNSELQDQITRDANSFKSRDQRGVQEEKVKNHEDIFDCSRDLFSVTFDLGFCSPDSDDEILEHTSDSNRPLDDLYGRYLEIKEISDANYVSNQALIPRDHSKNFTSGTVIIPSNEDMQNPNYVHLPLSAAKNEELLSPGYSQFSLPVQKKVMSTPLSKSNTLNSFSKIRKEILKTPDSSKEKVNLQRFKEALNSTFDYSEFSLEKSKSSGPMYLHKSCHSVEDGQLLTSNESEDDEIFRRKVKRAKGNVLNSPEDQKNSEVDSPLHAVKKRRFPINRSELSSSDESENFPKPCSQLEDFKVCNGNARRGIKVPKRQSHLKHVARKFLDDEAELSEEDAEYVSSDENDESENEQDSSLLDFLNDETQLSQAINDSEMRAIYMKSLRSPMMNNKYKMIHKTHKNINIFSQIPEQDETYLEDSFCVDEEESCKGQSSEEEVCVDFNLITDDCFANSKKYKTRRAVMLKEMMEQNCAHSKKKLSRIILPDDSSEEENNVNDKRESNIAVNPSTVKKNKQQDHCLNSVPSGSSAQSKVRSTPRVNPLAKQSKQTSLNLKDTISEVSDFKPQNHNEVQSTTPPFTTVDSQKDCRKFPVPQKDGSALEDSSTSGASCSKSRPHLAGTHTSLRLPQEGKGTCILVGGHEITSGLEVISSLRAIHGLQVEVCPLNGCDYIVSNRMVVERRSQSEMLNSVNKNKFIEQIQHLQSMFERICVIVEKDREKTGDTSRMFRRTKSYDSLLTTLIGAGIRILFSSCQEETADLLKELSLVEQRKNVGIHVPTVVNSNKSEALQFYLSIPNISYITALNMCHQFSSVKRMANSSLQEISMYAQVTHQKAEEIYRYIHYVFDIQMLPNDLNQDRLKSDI
UniProt P61328: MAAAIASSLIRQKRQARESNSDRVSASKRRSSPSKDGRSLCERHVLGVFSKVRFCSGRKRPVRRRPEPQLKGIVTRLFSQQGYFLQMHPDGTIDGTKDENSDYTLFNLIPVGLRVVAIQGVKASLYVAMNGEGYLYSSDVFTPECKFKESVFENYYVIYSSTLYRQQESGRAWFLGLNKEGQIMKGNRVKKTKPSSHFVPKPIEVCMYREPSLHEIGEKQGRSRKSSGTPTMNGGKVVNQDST

Key:
Assay in all cases: protein microarray (ProtoArray v5.0), streptavidin-Alexa Fluor 647
Conditions in all cases: 3'-biotin; 20 mM Tris (pH 7.5), 5 mM MgCl2, 100 mM KCl, 0.1% Tween-20, A/T-rich and random oligonucleotide blockers; temperature not stated; high values mean tight binding
FANCI (human) = system: FANCI (human)
FANCM = FANCM (UniProt Q8IYD8)
FBXL16 = molecular target: T1, FBXL16 (UniProt Q8N461)
T1 sequence: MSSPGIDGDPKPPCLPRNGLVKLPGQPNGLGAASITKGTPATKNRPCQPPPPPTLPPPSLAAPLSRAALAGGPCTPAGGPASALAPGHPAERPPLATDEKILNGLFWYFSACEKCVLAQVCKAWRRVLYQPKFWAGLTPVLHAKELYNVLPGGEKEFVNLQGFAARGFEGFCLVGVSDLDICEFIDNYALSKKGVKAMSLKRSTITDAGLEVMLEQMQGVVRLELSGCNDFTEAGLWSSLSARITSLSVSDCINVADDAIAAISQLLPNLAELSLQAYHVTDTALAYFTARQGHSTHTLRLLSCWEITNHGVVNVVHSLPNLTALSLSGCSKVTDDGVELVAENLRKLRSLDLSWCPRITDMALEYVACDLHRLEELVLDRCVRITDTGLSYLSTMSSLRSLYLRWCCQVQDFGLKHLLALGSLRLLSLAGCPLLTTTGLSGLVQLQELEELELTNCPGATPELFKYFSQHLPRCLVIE

FBXO36 = molecular target: T2, FBXO36 (UniProt Q8NEA4)
T2 sequence: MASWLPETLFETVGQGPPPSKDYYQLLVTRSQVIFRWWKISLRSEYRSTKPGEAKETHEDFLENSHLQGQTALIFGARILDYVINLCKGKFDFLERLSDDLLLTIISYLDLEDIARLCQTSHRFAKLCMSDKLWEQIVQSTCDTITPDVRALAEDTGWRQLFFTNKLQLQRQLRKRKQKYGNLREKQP

FBXO4 (human) = system: FBXO4 (human)
FBXO6 (human) = system: FBXO6 (human)
FCGR3A (human) = system: FCGR3A (human)
FCRL2 (human) = system: FCRL2 (human)
FDFT1 (human) = system: FDFT1 (human)
FGF12 = FGF12 (UniProt P61328)
FGF13 = molecular target: T3, FGF13 (UniProt Q92913)
T3 sequence: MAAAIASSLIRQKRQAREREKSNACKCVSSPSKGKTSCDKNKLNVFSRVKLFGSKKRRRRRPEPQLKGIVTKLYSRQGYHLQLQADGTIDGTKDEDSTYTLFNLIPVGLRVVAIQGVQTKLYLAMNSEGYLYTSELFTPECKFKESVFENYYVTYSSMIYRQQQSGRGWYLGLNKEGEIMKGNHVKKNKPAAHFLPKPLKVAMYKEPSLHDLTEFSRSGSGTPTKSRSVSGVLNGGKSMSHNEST

FGF21 (human) = system: FGF21 (human)
FKBPL = molecular target: T4, FKBPL (UniProt Q9UIM3)
T4 sequence: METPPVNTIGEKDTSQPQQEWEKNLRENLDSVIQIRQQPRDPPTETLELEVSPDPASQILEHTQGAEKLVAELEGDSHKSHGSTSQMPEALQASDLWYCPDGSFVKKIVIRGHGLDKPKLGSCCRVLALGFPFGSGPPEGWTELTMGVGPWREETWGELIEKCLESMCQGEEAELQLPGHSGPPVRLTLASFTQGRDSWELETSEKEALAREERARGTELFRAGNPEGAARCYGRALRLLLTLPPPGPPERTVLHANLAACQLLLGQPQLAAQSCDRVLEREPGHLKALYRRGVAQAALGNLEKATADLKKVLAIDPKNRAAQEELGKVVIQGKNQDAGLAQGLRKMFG

FLJ10781 (human) = system: FLJ10781 (human)
FLJ20160 (human) = system: FLJ20160 (human)
FLJ20489 (human) = system: FLJ20489 (human)
FLJ25758 (human) = system: FLJ25758 (human)
FLJ40504 (human) = system: FLJ40504 (human)
FLJ43980 (human) = system: FLJ43980 (human)
FLOT2 (human) = system: FLOT2 (human)

Q: What does the source list for “GGTGACAGGGGTATGGGGAGGGG [G4-2 biotinylated (Ct1)]”?
A: binding signal (FANCI (human)): -0.395 z-score; binding signal (FANCM): 5.42 z-score; binding signal (FBXL16): -0.369 z-score; binding signal (FBXO36): -0.364 z-score; binding signal (FBXO4 (human)): -0.381 z-score; binding signal (FBXO6 (human)): -0.373 z-score; binding signal (FCGR3A (human)): -0.379 z-score; binding signal (FCRL2 (human)): -0.38 z-score; binding signal (FDFT1 (human)): -0.395 z-score and -0.396 z-score; binding signal (FGF12): 5.82 z-score and 6.79 z-score; binding signal (FGF13): 4.17 z-score; binding signal (FGF21 (human)): -0.363 z-score; binding signal (FKBPL): -0.388 z-score; binding signal (FLJ10781 (human)): 4.17 z-score; binding signal (FLJ20160 (human)): -0.378 z-score; binding signal (FLJ20489 (human)): -0.386 z-score; binding signal (FLJ25758 (human)): -0.382 z-score; binding signal (FLJ40504 (human)): -0.378 z-score; binding signal (FLJ43980 (human)): -0.397 z-score; binding signal (FLOT2 (human)): -0.383 z-score
